The record followed here is PubChem BioAssay AID248 (DTP/NCI, 2004).

This assay relates to L1210 leukemia ip in BDF1 mice, survival T/C. Description: NCI In Vivo Anticancer Drug Screen. Data for tumor model L1210 Leukemia (intraperitoneal) in B6D2F1 (BDF1) mice. The following applies: T/C endpoint: mean survival time, higher T/C = longer survival.
Where [1] appears, read: dose: 200.0 mg/kg/injection, schedule: Q04DX002 (ip), vehicle: saline with Tween-80.
The mark [2] stands for this setting: dose: 400.0 mg/kg/injection, schedule: Q04DX002 (ip), vehicle: saline with Tween-80.
Setting [3] is: dose: 200.0 mg/kg/injection, schedule: Q04DX003 (ip), vehicle: Klucel (hydroxypropylcellulose) (HPC).
[4] abbreviates: dose: 400.0 mg/kg/injection, schedule: Q04DX003 (ip), vehicle: Klucel (hydroxypropylcellulose) (HPC).
The mark [5] stands for this setting: dose: 200.0 mg/kg/injection, schedule: Q01DX009 (ip), vehicle: saline.
Setting [6] is: dose: 400.0 mg/kg/injection, schedule: Q01DX009 (ip), vehicle: saline.
Setting [7] is: dose: 200.0 mg/kg/injection, schedule: Q01DX001 (ip), vehicle: Klucel (hydroxypropylcellulose) (HPC).
Where [8] appears, read: dose: 400.0 mg/kg/injection, schedule: Q01DX001 (ip), vehicle: Klucel (hydroxypropylcellulose) (HPC).

SMILES strings stand for the structures. The list is a part of this screen's results and no random one: it is rich in T/C values a quarter to a half above the control, in often repeated tests (any T/C) and in doses without a T/C. Other doses and runs of a compound stand elsewhere. T/C gives the treated animals as a percentage of the vehicle group. Some entries give survivors of the animals treated and no T/C: the source holds a T/C of zero for them, seemingly a mark for toxic or unscored doses. Some survivor counts are full or nearly so, which does not show that the dose was tolerated: survival well below the control is almost never listed, so the zero probably covers shortened survival too. Survivors were counted at the toxicity check, usually on the fifth day, unless a day is given; later deaths do not show. Schedule codes are those of the source, taken here to give the interval after Q, in days (D) or hours (H), and the number of doses after X. Brackets with × stand for listed records that agree. Some schedule codes hold Z or #, which are not explained here. For survival time, the PubChem record calls one and a half times the control and up active, and a quarter to a half above the control has no call in these data; cut-offs in other NCI protocols can differ. Some entries hold several experiments; their values stand side by side, smallest first. Some T/C values carry the count of animals alive at the toxicity check (mostly the fifth day); where none is given, no animal had died by that day.

Take `ClCc1c2ccccc2cc2ccccc12`: the survivor count by setting is: (dose: 25.0 mg/kg/injection, schedule: Q04DX002 (ip), vehicle: saline with Tween-80) 3 of 3; (dose: 100.0 mg/kg/injection, schedule: Q04DX002 (ip), vehicle: saline with Tween-80) 3 of 3; under setting [1], 0 of 3; under setting [2], 0 of 3.
Take `O=[N+]([O-])c1cc(O)ccc1Cl`: the survivor count (dose: 200.0 mg/kg/injection, schedule: Q01DX009 (ip), vehicle: alcohol) is 0 of 6; the survivor count (dose: 200.0 mg/kg/injection, schedule: Q04DX003 (ip), vehicle: alcohol) is 3 of 6; the survivor count (dose: 300.0 mg/kg/injection, schedule: Q01DX009 (ip), vehicle: alcohol) was 0 of 6; the survivor count (dose: 400.0 mg/kg/injection, schedule: Q04DX003 (ip), vehicle: alcohol) was 1 of 6.
On to `C1CNCOC1`, for which the survivor count (dose: 400.0 mg/kg/injection, schedule: Q04DX003 (ip), vehicle: saline) is 2 of 6.
In the case of `C1=C(c2ccccc2)CC2CCCC1N2Cc1ccccc1` (stereo not given), the survivor count reads like this: (dose: 100.0 mg/kg/injection, schedule: Q04DX003 (ip), vehicle: Klucel (hydroxypropylcellulose) (HPC)) 0 of 6; under setting [3], 0 of 6; under setting [4], 0 of 6.
Consider `c1ncc(OCCN2CC2)nc1OCCN1CC1`, for which the survivor count is, setting by setting: (dose: 1.0 mg/kg/injection, schedule: Q01DX009 (ip), vehicle: carboxymethylcellulose (CMC)) 2 of 6; (dose: 1.5 mg/kg/injection, schedule: Q01DX009 (ip), vehicle: carboxymethylcellulose (CMC)) 0 of 6; (dose: 2.3 mg/kg/injection, schedule: Q01DX009 (ip), vehicle: carboxymethylcellulose (CMC)) 0 of 6; (dose: 3.5 mg/kg/injection, schedule: Q01DX009 (ip), vehicle: carboxymethylcellulose (CMC)) 0 of 6; (dose: 5.5 mg/kg/injection, schedule: Q01DX009 (ip), vehicle: saline) 0 of 6; (dose: 11.1 mg/kg/injection, schedule: Q01DX009 (ip), vehicle: saline) 0 of 6. Also, the survivor count reads like this: (dose: 16.6 mg/kg/injection, schedule: Q01DX001 (ip), vehicle: saline) 3 of 6; (dose: 16.6 mg/kg/injection, schedule: Q01DX009 (ip), vehicle: saline) 0 of 6; (dose: 25.0 mg/kg/injection, schedule: Q01DX009 (ip), vehicle: saline) 0 of 6; (dose: 37.5 mg/kg/injection, schedule: Q01DX001 (ip), vehicle: carboxymethylcellulose (CMC)) 0 of 6; (dose: 37.5 mg/kg/injection, schedule: Q01DX001 (ip), vehicle: saline) 0 of 6; (dose: 50.0 mg/kg/injection, schedule: Q01DX001 (ip), vehicle: carboxymethylcellulose (CMC)) 0 of 6. The survivor count (dose: 100.0 mg/kg/injection, schedule: Q01DX001 (ip), vehicle: carboxymethylcellulose (CMC)) is 0 of 6; the survivor count (dose: 200.0 mg/kg/injection, schedule: Q01DX001 (ip), vehicle: carboxymethylcellulose (CMC)) was 0 of 6; the survivor count (dose: 400.0 mg/kg/injection, schedule: Q01DX001 (ip), vehicle: carboxymethylcellulose (CMC)) was 0 of 6. Moreover, the T/C by setting is: (dose: 2.0 mg/kg/injection, schedule: Q01DX009 (ip), vehicle: saline) 126 % of control; (dose: 12.5 mg/kg/injection, schedule: Q01DX001 (ip), vehicle: carboxymethylcellulose (CMC)) 143 % of control; (dose: 16.6 mg/kg/injection, schedule: Q01DX001 (ip), vehicle: carboxymethylcellulose (CMC)) 132 % of control; (dose: 25.0 mg/kg/injection, schedule: Q01DX001 (ip), vehicle: carboxymethylcellulose (CMC)) 141 and 147 % of control; (dose: 25.0 mg/kg/injection, schedule: Q01DX001 (ip), vehicle: saline) 147 % of control [4 of 6 alive].
Turning to `[N-]=[N+]=NCC(=O)NCc1cnccn1`, the survivor count was 0 of 6 (dose: 100.0 mg/kg/injection, schedule: Q01DX009 (ip), vehicle: saline); 3 of 6 under setting [5]; 0 of 6 under setting [6].
Take `COC1/C=C/OC2(C)Oc3c(C)c(O)c4c(O)c(c(/C=N/N5C(C)CN(Cc6ccccc6)CC5C)c(O)c4c3C2=O)NC(=O)C(C)=C/C=C/C(C)C(O)C(C)C(O)C(C)C(OC(C)=O)C1C` (stereo not given): the survivor count reads like this: (dose: 200.0 mg/kg/injection, schedule: Q01DX009 (ip), vehicle: Klucel (hydroxypropylcellulose) (HPC)) 9 of 9; (dose: 400.0 mg/kg/injection, schedule: Q01DX009 (ip), vehicle: Klucel (hydroxypropylcellulose) (HPC)) 1 of 10.
For `O=C(C[n+]1ccccc1)N/N=C/c1c(O)ccc2ccccc12`, the survivor count (dose: 100.0 mg/kg/injection, schedule: Q01DX009 (ip), vehicle: saline with Tween-80) is listed as 2 of 6; the survivor count (dose: 200.0 mg/kg/injection, schedule: Q01DX009 (ip), vehicle: saline with Tween-80) is listed as 0 of 6; the survivor count (dose: 400.0 mg/kg/injection, schedule: Q01DX009 (ip), vehicle: saline with Tween-80) is 0 of 6.
Regarding `O=CC(O)C(O)C(O)C(O)CO` (stereo not given) (tested in a mixture with another compound), the survivor count (dose: 50.0 mg/kg/injection, schedule: Q04DX002 (ip), vehicle: saline) was 3 of 3.
In the case of `CC(C)(C#N)C(C)(C)c1cnc2ccccc2c1`, the survivor count under setting [4] is on record as 0 of 6.
Turning to `N=C(N)SCCCSC(=N)N`, the survivor count under setting [5] is listed as 5 of 6, the survivor count under setting [3] is 0 of 6, the survivor count under setting [6] was 0 of 6 and the survivor count under setting [4] is listed as 0 of 6.
For `O=C1NC(=O)C2C3CCC(O3)C12` (stereo not given), the T/C (dose: 100.0 mg/kg/injection, schedule: Q04DX002 (ip), vehicle: Klucel (hydroxypropylcellulose) (HPC)) is 130 % of control. Besides, the survivor count runs as follows: (dose: 200.0 mg/kg/injection, schedule: Q04DX002 (ip), vehicle: Klucel (hydroxypropylcellulose) (HPC)) 2 of 3 (2×); (dose: 400.0 mg/kg/injection, schedule: Q04DX002 (ip), vehicle: Klucel (hydroxypropylcellulose) (HPC)) 0 of 3 (2×).
As to `Cc1c(C#N)c2n(c1C)CCN2`, the survivor count is 0 of 6 under setting [7] and 0 of 6 under setting [8].
Turning to `Cc1ccc(NC(=O)Nc2cc(C)on2)c([N+](=O)[O-])c1`, the survivor count runs as follows: under setting [3], 6 of 6; under setting [4], 6 of 6.
For `CCOC(=O)c1cnc(SC)nc1Nc1ccc([N+](=O)[O-])cc1`, the survivor count is 6 of 6 (dose: 100.0 mg/kg/injection, schedule: Q01DX001 (ip), vehicle: Klucel (hydroxypropylcellulose) (HPC)); 6 of 6 under setting [7]; 6 of 6 under setting [8].
On to `O=C1NC(=O)C(=Cc2ccccc2)C(=O)N1`, for which the survivor count is given as 6 of 6 (dose: 100.0 mg/kg/injection, schedule: Q01DX Z (ip), vehicle: methylcellulose (MC)) and 0 of 3 under setting [2].
On to `CCN(CC)CCOc1ccc(C(C)(C)c2ccc(OCCN(CC)CC)cc2)cc1`, for which, under “dose: 400.0 mg/kg/injection, schedule: Q04DX002 (ip), vehicle: saline”, the survivor count is 0 of 3.
Consider `C=C1C(=O)O[C@H]2C[C@@]3(C)[C@H](O)CCC(=C)[C@@H]3[C@@H](OC(C)=O)[C@H]12`, for which the survivor count is, setting by setting: under setting [1], 0 of 3; under setting [2], 0 of 3.
On to `N#CCN(CC#N)CCCN(CC#N)CCCN(CC#N)CC#N`, for which the survivor count reads like this: (dose: 100.0 mg/kg/injection, schedule: Q01DX001 (ip), vehicle: saline with Tween-80) 1 of 3; (dose: 200.0 mg/kg/injection, schedule: Q01DX001 (ip), vehicle: saline with Tween-80) 0 of 3; (dose: 400.0 mg/kg/injection, schedule: Q01DX001 (ip), vehicle: saline with Tween-80) 0 of 3.
For `CCc1cccc2c1C(=O)OC2=O`, the survivor count under setting [6] was 2 of 6.
